Assay results taken from the supplement of paper PMC10849652.
The other results are listed elsewhere or left out.

Amino acid sequences for entries named in this document (tags omitted). A change or cut given only in a name is not applied to a line headed by its entry.
UniProt Q8NEY1: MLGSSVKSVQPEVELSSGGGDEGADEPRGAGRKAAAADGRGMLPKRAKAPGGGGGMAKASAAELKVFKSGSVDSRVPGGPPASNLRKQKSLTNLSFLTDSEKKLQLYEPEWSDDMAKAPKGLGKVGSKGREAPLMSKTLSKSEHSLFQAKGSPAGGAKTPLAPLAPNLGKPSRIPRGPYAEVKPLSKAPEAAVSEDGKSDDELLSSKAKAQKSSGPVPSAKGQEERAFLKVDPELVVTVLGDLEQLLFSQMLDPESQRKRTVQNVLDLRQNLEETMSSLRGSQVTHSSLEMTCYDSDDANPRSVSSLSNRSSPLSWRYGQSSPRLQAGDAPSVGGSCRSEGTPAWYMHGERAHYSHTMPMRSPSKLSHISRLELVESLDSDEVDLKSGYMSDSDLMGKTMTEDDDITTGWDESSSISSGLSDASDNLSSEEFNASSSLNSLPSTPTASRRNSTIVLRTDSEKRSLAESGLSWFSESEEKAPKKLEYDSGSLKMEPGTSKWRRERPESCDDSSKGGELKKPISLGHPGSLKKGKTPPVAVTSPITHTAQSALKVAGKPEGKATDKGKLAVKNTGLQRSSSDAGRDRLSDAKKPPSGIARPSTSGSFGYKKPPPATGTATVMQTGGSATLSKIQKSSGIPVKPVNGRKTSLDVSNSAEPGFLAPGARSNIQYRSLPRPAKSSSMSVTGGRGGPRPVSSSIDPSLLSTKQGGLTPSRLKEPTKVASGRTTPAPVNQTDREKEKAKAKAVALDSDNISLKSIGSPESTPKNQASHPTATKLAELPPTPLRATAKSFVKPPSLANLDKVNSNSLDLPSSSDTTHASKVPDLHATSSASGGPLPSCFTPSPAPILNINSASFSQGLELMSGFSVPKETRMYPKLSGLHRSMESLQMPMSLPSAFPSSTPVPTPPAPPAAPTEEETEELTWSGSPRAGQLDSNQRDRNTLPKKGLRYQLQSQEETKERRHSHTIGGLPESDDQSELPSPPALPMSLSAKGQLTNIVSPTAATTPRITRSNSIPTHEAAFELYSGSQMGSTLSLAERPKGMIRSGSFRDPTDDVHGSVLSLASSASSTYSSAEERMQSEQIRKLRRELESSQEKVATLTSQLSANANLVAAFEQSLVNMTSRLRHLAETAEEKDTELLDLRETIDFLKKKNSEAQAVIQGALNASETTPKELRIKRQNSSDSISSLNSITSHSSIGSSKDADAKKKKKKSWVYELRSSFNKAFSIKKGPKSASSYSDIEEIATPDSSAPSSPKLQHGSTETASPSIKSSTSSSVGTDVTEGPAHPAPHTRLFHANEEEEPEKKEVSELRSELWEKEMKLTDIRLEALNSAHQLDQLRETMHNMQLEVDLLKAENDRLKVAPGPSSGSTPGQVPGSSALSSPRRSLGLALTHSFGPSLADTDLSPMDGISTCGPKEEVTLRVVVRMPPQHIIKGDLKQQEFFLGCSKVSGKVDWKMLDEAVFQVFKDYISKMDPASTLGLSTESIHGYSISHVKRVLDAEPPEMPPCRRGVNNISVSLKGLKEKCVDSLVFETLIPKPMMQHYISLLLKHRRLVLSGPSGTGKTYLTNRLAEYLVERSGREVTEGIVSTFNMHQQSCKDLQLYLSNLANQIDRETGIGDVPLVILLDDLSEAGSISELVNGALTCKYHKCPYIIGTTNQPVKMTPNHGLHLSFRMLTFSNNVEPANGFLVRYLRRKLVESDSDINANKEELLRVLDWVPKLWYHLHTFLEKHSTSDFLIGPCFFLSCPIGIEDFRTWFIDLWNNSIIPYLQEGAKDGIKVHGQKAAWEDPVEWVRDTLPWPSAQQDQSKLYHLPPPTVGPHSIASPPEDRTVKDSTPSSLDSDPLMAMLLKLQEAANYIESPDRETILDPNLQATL
UniProt O95182, whole entry, looked up: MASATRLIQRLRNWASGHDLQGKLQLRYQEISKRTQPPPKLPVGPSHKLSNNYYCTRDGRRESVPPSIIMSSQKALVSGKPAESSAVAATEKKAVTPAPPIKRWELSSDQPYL
UniProt O43639, whole entry, looked up: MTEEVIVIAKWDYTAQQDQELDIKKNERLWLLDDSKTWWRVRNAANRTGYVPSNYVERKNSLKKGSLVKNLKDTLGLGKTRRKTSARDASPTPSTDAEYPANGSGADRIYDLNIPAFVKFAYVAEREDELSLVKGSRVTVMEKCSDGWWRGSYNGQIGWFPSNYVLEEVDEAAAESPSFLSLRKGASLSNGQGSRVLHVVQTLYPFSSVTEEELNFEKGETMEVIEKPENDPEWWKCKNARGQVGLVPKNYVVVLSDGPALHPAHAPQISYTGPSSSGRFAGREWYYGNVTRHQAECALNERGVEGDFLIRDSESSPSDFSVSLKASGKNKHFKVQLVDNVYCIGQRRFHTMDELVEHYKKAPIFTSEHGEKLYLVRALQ
UniProt O75251, whole entry, looked up: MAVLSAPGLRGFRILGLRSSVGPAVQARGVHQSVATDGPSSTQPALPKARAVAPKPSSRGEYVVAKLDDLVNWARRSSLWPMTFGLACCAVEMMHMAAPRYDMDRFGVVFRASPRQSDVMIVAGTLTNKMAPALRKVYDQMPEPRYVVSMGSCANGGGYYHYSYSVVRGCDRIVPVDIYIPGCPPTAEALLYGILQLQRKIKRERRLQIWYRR
UniProt Q9UI09, whole entry, looked up: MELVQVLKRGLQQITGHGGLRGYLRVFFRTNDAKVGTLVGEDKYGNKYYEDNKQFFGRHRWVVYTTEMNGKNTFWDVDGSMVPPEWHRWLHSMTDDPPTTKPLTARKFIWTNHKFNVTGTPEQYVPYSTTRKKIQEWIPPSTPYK
UniProt Q96PU5: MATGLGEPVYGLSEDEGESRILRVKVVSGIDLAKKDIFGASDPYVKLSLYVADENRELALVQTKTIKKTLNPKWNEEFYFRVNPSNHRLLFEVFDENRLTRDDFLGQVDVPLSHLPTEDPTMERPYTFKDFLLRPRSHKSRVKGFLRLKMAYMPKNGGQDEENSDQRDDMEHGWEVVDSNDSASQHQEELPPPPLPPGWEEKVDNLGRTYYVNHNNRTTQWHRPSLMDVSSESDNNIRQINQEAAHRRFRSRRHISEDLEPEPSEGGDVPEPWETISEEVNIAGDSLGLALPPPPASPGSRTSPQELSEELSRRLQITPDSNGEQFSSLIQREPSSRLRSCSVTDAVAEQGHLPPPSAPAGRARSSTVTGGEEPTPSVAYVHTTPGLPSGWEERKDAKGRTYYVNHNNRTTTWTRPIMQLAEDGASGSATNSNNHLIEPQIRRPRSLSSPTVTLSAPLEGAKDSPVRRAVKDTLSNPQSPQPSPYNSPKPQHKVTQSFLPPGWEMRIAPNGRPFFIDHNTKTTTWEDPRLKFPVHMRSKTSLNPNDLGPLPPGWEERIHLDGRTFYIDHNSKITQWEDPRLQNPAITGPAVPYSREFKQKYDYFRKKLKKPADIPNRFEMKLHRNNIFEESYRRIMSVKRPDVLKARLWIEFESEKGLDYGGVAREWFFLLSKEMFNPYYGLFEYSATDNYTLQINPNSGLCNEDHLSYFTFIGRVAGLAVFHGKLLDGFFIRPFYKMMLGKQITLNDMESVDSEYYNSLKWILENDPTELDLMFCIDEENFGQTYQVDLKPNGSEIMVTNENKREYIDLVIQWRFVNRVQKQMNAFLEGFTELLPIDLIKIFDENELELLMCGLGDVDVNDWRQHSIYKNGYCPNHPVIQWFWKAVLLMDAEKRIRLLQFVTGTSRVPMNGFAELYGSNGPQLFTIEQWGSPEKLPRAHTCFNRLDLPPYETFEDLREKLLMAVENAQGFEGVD
UniProt Q9HCD5: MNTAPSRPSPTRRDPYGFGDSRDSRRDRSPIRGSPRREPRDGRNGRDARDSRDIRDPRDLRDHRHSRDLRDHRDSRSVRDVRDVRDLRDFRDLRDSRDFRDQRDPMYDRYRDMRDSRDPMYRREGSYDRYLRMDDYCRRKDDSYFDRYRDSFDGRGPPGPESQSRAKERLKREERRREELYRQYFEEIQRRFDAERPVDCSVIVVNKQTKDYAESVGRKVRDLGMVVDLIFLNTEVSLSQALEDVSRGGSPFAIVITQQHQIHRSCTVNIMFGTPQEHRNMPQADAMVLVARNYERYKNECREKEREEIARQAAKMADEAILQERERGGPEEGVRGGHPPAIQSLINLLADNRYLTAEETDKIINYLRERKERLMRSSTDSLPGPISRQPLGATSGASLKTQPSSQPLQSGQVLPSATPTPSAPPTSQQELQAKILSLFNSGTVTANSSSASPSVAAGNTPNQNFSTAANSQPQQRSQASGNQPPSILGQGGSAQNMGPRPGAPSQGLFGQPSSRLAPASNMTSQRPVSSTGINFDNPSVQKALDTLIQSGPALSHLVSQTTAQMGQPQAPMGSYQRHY
UniProt Q4G0T1: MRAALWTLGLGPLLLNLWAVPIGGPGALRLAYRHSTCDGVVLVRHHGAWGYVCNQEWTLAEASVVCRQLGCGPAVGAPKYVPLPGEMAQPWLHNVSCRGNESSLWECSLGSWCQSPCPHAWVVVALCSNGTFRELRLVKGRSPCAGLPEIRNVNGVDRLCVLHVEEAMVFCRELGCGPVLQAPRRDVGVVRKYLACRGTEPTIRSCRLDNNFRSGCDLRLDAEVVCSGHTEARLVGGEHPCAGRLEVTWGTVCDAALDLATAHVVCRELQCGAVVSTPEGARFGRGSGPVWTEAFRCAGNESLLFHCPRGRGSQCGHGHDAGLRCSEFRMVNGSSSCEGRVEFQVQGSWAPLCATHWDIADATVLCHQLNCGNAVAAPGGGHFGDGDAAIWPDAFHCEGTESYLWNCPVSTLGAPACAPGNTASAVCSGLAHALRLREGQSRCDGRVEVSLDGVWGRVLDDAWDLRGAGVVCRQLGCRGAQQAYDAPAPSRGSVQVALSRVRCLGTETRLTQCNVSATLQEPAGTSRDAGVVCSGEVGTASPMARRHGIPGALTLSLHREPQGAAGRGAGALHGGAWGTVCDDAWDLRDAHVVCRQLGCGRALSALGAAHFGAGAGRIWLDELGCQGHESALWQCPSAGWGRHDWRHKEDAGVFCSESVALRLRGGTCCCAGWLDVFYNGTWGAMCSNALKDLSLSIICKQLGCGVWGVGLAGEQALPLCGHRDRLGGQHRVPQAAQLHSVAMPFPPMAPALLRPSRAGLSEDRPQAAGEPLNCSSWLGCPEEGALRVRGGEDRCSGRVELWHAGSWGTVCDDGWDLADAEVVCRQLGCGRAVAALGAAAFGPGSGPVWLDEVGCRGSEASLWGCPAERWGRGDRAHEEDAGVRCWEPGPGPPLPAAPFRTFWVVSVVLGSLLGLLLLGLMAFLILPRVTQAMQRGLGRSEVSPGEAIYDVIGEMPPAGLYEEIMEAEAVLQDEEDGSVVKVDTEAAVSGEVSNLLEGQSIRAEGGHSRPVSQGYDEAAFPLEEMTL
UniProt Q92692, whole entry, looked up: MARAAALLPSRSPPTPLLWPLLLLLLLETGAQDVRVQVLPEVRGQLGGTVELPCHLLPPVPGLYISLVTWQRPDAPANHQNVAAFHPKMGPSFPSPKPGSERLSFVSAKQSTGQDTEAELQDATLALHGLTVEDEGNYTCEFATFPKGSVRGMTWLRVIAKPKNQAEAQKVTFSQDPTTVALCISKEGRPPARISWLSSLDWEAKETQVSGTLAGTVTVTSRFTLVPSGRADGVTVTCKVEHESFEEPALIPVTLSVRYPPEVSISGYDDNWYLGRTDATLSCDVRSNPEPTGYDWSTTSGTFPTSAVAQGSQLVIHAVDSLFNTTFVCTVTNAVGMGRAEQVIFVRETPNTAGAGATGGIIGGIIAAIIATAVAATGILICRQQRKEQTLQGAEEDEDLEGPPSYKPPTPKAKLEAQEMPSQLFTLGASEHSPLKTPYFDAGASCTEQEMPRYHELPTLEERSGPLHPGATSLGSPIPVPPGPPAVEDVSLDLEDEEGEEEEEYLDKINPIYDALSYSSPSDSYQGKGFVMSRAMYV
UniProt Q02083: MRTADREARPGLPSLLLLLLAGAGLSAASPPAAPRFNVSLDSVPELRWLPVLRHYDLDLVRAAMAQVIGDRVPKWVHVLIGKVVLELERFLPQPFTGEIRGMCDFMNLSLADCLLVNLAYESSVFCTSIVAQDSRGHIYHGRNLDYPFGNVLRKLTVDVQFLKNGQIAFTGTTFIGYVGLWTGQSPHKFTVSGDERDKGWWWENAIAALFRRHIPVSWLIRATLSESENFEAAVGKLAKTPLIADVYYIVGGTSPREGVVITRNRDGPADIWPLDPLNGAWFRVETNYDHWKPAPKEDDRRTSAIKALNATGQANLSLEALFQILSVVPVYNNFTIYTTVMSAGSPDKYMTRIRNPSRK

Key:
Assay in all cases: log2 fold change, soluble protein after heating vs DMSO (PISA); higher = thermal stabilisation; K562 cells, 10 uM, 30 min; active = over 0.2 and 3.5 SD of the protein, either way, in both replicates (recomputed)
[1] = compound: CC1=C(C=C(C=C1)NC(=O)C2=CC(=CC=C2)C(C)(C)C#N)NC3=CC4=C(C=C3)N=CN(C4=O)C
How it was run: (§1)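 Soluble protein was defined as the supernatant after 21,000xg for 90 min. It came from K562 cells at 2×10^6 cells/mL given 10 μM compound for 30 min, heated in aliquots for 3 min across 48°C-58°C, pooled, and extracted in PBS with 0.5% NP-40 at 4°C, and was quantified by TMTpro 16plex LC-MS/MS with equalised channel sums. Thermal stability against control samples, from duplicates, is reported as log2 fold change.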

[2] = compound: CC1=C(C=C(C=C1)NC(=O)C2=CC(=CC=C2)N(C)C)NC(=O)C3=CC=C(C=C3)O
How it was run: as §1

[3] = compound: CC1=CC=C(C=C1)SC2=C3C=C(SC3=CN=C2)C(=O)N
How it was run: as §1

[4] = compound: CC1=NC(=CC=C1)C2=C(N=C(N2)C(C)(C)C)C3=CC4=NC=CN=C4C=C3
How it was run: as §1

Nexturastat A = compound: CCCCN(Cc1ccc(C(=O)NO)cc1)C(=O)Nc1ccccc1 [Nexturastat A]
How it was run: as §1

vemurafenib = compound: CCCS(=O)(=O)Nc1ccc(F)c(C(=O)c2c[nH]c3ncc(-c4ccc(Cl)cc4)cc23)c1F [vemurafenib]
How it was run: as §1

[5] = compound: CCCS(=O)(=O)Nc1ccc(F)c(C(=O)c2c[nH]c3ncc(Cl)cc23)c1F
How it was run: as §1

[6] = compound: CCCc1cc(C)[nH]c(=O)c1CNC(=O)c1cc(-c2ccnc(N3CCN(C)CC3)c2)cc2c1cnn2C(C)C
How it was run: as §1

givinostat = compound: CCN(CC)Cc1ccc2cc(COC(=O)Nc3ccc(C(=O)NO)cc3)ccc2c1 [givinostat]
How it was run: as §1

[7] = compound: CC[C@@H]1C(=O)N(C)c2cnc(Nc3ccc(C(=O)NC4CCN(C)CC4)cc3OC)nc2N1C1CCCC1
How it was run: as §1

volasertib = compound: CC[C@@H]1C(=O)N(C)c2cnc(Nc3ccc(C(=O)N[C@H]4CC[C@H](N5CCN(CC6CC6)CC5)CC4)cc3OC)nc2N1C(C)C [volasertib]
How it was run: as §1

[8] = compound: CC[C@H](C)N1C=C(C2=C(C=C(C=C21)C3=CN=C(C=C3)N4CCNCC4)C(=O)NCC5=C(C=C(NC5=O)C)C)C
How it was run: as §1

epoxomicin = compound: CC[C@H](C)[C@@H](C(=O)N[C@@H]([C@@H](C)O)C(=O)N[C@@H](CC(C)C)C(=O)[C@]1(CO1)C)NC(=O)[C@H]([C@@H](C)CC)N(C)C(=O)C [epoxomicin]
How it was run: as §1

[9] = compound: CCn1c(C(=O)N(C2CC2)C2CC2)cc2c3c(ncn3C)c(Nc3cc(C)n(C)n3)nc21
How it was run: as §1

[10] = compound: CCn1cc(-c2ccnc3[nH]c(-c4cccc(CN(C)C)c4)cc23)c(-c2ccc(NC(=O)N(C)C)cc2)n1
How it was run: as §1

[11] = compound: CN(C)CC(=O)Nc1ccc2[nH]c(=O)c3ccccc3c2c1
How it was run: as §1

[12] = compound: CN1C2=C(C3=C1C(=O)N(N=C3)CC4=CC(=CC=C4)N)SC(=C2)S(=O)C
How it was run: as §1

[13] = compound: CN1CCC(CNc2ccc3ncc(-c4cccc(OC(F)(F)F)c4)n3n2)CC1
How it was run: as §1

barasertib = compound: CCN(CCCOc1ccc2c(Nc3cc(CC(=O)Nc4cccc(F)c4)[nH]n3)ncnc2c1)CCOP(=O)(O)O [barasertib]
How it was run: as §1

rosiglitazone = compound: CN(CCOC1=CC=C(C=C1)C[C@H]2C(=O)NC(=O)S2)C3=CC=CC=N3 (racemic) [rosiglitazone]
How it was run: as §1

Measured: log2 fold change

NAV1 (UniProt Q8NEY1)
inactive: [1] -0.118 | [2] -0.025 | [3] 0.131 | [4] -0.057 | Nexturastat A 0.177 | vemurafenib -0.09 | [5] -0.042 | [6] 0.189 | givinostat 0.286 | [7] -0.01 | volasertib -0.118 | [8] 0.013 | epoxomicin 0.045 | [9] -0.002 | [10] -0.245 | [11] -0.03 | [12] 0.229 | [13] -0.168

NCKAP1 isoform 2 (UniProt Q9Y2A7)
active: volasertib -0.25
inactive: [1] 0.039 | [2] 0.009 | [3] 0.004 | [4] 0.033 | Nexturastat A 0.02 | vemurafenib 0.036 | [5] 0.015 | [6] 0.064 | givinostat 0.021 | barasertib -0.009 | [7] 0.002 | [8] 0.031 | epoxomicin 0.01 | [10] -0.036 | [11] 0.043 | [12] -0.042 | [13] -0.027

NCK1 (UniProt P16333)
inactive: [1] 0.166 | [2] -0.068 | [3] 0.208 | [4] 0.102 | Nexturastat A 0.12 | vemurafenib 0.031 | [5] 0.116 | [6] 0.08 | givinostat 0.211 | barasertib 0.189 | volasertib -0.306 | [8] 0.109 | epoxomicin -0.053 | [11] 0.044 | [12] 0.027

NDUFA7 (UniProt O95182)
active: [13] -0.324
inactive: [1] -0.013 | [2] 0 | [3] -0.007 | [4] -0.021 | Nexturastat A -0.035 | vemurafenib -0.045 | [5] 0.019 | [6] -0.079 | givinostat -0.024 | barasertib -0.011 | [7] -0.19 | volasertib -0.109 | [8] -0.023 | epoxomicin 0.052 | [10] 0.011 | [11] 0.01 | [12] 0.027

NAMPT (UniProt C9JF35)
inactive: [1] -0.029 | [2] -0.068 | [3] -0.072 | [4] 0.027 | Nexturastat A -0.031 | [5] -0.082 | [6] -0.337 | givinostat -0.052 | barasertib -0.092 | [7] 0.087 | volasertib -0.083 | [8] -0.029 | epoxomicin -0.071 | [9] -0.039 | rosiglitazone 0.1 | [12] -0.128

NCK2 (UniProt O43639)
inactive: [1] 0.021 | [2] -0.064 | [3] -0.114 | [4] 0.071 | Nexturastat A -0.055 | vemurafenib 0.066 | [5] -0.312 | barasertib 0.053 | [7] -0.081 | volasertib 0.062 | [8] 0.099 | epoxomicin 0.121 | [10] -0.047 | [11] 0.054 | rosiglitazone 0.12 | [12] -0.054 | [13] -0.282

NDUFS7 (UniProt O75251)
inactive: [1] 0.008 | [2] 0.004 | [3] 0.017 | [4] 0.025 | Nexturastat A -0.019 | vemurafenib -0.025 | [5] 0.028 | [6] -0.039 | givinostat 0.113 | barasertib 0.016 | [7] -0.043 | volasertib -0.042 | [8] 0.003 | epoxomicin -0.007 | [10] -0.005 | [11] 0.012 | [12] -0.029
active: [13] -0.327

NDUFA12 (UniProt Q9UI09)
active: [13] -0.632
inactive: [1] 0.022 | [2] -0.1 | [3] 0.014 | [4] -0.028 | Nexturastat A -0.027 | vemurafenib 0.039 | [5] 0.03 | [6] -0.044 | givinostat 0.114 | barasertib 0.056 | [7] -0.135 | volasertib -0.244 | [8] 0.081 | epoxomicin 0.046 | [10] -0.173 | [11] 0.119 | [12] -0.054

NEDD4L (UniProt Q96PU5)
active: volasertib -0.425
inactive: [1] 0.015 | [2] -0.138 | [3] -0.046 | [4] 0.01 | Nexturastat A -0.059 | vemurafenib 0.049 | [5] 0.019 | [6] 0.013 | givinostat 0.056 | barasertib -0.021 | [7] -0.02 | [8] 0.03 | epoxomicin 0.012 | [10] -0.09 | [11] 0.023 | [12] 0.039 | [13] -0.099

NCL (UniProt P19338)
inactive: [1] -0.017 | [2] -0.056 | [3] -0.077 | [4] -0.126 | Nexturastat A 0.275 | vemurafenib -0.139 | [5] -0.036 | [6] 0.145 | givinostat 0.085 | barasertib -0.101 | [7] 0.167 | volasertib 0.173 | [8] -0.011 | epoxomicin -0.427 | [10] 0.336 | [11] -0.06 | [12] 0.393 | [13] 0.293

NCOA5 (UniProt Q9HCD5)
inactive: [1] 0.076 | [2] 0.134 | [3] 0.099 | [4] -0.315 | [5] -0.096 | givinostat 0.08 | volasertib 0.072 | [8] -0.019 | [10] 0.038 | [12] 0.187 | [13] 0.036

NCAPG (UniProt Q9BPX3)
inactive: [1] 0.086 | [2] -0.074 | [3] 0.027 | [4] 0.038 | Nexturastat A 0.011 | vemurafenib 0.056 | [5] 0.091 | [6] 0.064 | givinostat 0.081 | barasertib 0.064 | [7] -0.105 | [8] 0.059 | epoxomicin 0.023 | [10] 0.003 | [11] 0.04 | [12] 0.004 | [13] 0.092
active: volasertib -0.506

NA isoform 3 (UniProt Q4G0T1)
inactive: [1] -0.007 | [2] 0.035 | [3] 0.008 | [4] -0.057 | vemurafenib 0.005 | [5] -0.077 | [6] -0.012 | givinostat -0.009 | barasertib 0.179 | volasertib -0.051 | [8] 0.026 | [11] -0.019 | [12] -0.008

NECTIN2 isoform 2 (UniProt Q92692)
inactive: [1] -0.037 | [2] 0.011 | [4] -0.104 | Nexturastat A 0.17 | vemurafenib 0.033 | [6] -0.028 | givinostat 0.054 | barasertib 0.005 | [7] 0.175 | [8] 0.106 | epoxomicin -0.132 | [10] -0.104 | [11] -0.063 | [12] -0.146 | [13] 0.318

NAAA (UniProt Q02083)
inactive: [1] 0.201 | [2] 0.042 | [3] -0.198 | [4] 0.252 | [5] 0.03 | [6] -0.042 | givinostat -0.002 | [7] 0.252 | volasertib -0.078 | [8] -0.319 | [9] -0.046 | [10] 0.073 | [13] -0.373

NA, A0A0B4J2A0
inactive: [1] 0.016 | [2] -0.028 | [3] 0.002 | [4] -0.006 | Nexturastat A -0.043 | vemurafenib 0.017 | [5] 0.072 | [6] -0.091 | givinostat 0.029 | barasertib 0.012 | [7] -0.163 | volasertib -0.036 | [8] 0.008 | epoxomicin 0.11 | [10] -0.055 | [11] -0.004 | [12] -0.078 | [13] -0.101

2 successive records already listed, quoted:
NCOA5 (UniProt Q9HCD5)
inactive: [1] 0.076 | [2] 0.134 | [3] 0.099 | [4] -0.315 | [5] -0.096 | givinostat 0.08 | volasertib 0.072 | [8] -0.019 | [10] 0.038 | [12] 0.187 | [13] 0.036

NCAPG (UniProt Q9BPX3)
inactive: [1] 0.086 | [2] -0.074 | [3] 0.027 | [4] 0.038 | Nexturastat A 0.011 | vemurafenib 0.056 | [5] 0.091 | [6] 0.064 | givinostat 0.081 | barasertib 0.064 | [7] -0.105 | [8] 0.059 | epoxomicin 0.023 | [10] 0.003 | [11] 0.04 | [12] 0.004 | [13] 0.092
active: volasertib -0.506

Next results:

NEDD4 isoform 4 (UniProt P46934)
inactive: [1] -0.069 | [2] -0.011 | [3] -0.025 | [4] 0.047 | Nexturastat A -0.04 | vemurafenib 0.029 | [5] 0.026 | [6] 0.026 | givinostat 0.018 | barasertib 0.009 | [7] -0.102 | [8] 0.008 | epoxomicin 0.008 | [10] -0.031 | [11] 0.015 | [12] -0.01 | [13] 0.049
active: volasertib -0.521

NCOA3 (UniProt Q9Y6Q9)
inactive: [1] 0.078 | [2] -0.023 | [3] 0.055 | [4] 0.005 | Nexturastat A 0.097 | vemurafenib 0.079 | [5] -0.05 | givinostat 0.081 | barasertib 0.078 | [7] -0.157 | volasertib -0.317 | [8] 0.013 | epoxomicin -0.138 | [9] -0.123 | [10] -0.062 | [11] -0.005 | rosiglitazone -0.06 | [13] 0.031
